Usually AC50 stands for the concentration at which the activity in the assay is half-maximal. A higher AC50 goes with weaker potency.

Some of the results follow. Further columns of the screen follow, without active or inactive calls. Compounds called inactive in the main read-out are mostly missing here. The note in brackets gives the kind of curve behind each potency; many fits are weak.

A short description of this test: qHTS Assay for Lipid Storage Modulators in Drosophila S3 Cells.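 On cell number change: cells counted by Cell Tracker Red CMTPX staining in the red channel.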 The settings on record: BODIPY lipid droplet fluorescence, 18-24 h; for cell number change: measured here: cell count max response, cells fed with added oleic acid. A digest of the protocol: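 Drosophila S3 cells loaded with oleic acid (400 uM, as added) and compounds at several concentrations; lipid droplets imaged by 488-nm laser-scanning cytometry, 500–530 nm intensity and object ratio to cell channel. Percent activity normalized to 20 uM Triacsin C.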

Where [1] appears, read: measured here: lipid fluorescence (Fed channel) AC50, cells fed with added oleic acid.
[2] abbreviates: measured here: cell number channel AC50, cells fed with added oleic acid.

Regarding `CC(ON1CC1(C(F)(F)F)C(F)(F)F)(C(N)=O)C(N)=O` (stereo not given), the cell number change is -3.29%. Besides, the half-maximal activity concentration (AC50) under setting [1] was 29.1 µM [falling, single point].

`COC(=O)C1=C(c2ccc(S(C)(=O)=O)cc2)C[C@@H]2CC[C@H]1N2C`: the cell number change was determined as 4.93%.

In the case of `CCCNC1=C(C)C(=O)C2=C(C1=O)C(COC(N)=O)[C@]1(OC)C3NC3CN21` (stereo not given in full), the cell number change is 19.7%.

With `CCN1CCN(Cc2cc(Br)ccc2O)CC1`, the cell number change was 21.3%. In addition, under setting [1], the AC50 was 0.116 µM [rising, full curve, poor fit].

Regarding `Cc1cc(C)[n+](CCCC[n+]2c(C)cc(C)cc2C)c(C)c1`, the cell number change turned out to be 1.45%. Further, the AC50 under setting [2] is 6.51 µM [falling, single point]. Also, the AC50 under setting [1] was 0.651 µM [rising, partial curve, poor fit]. Take `CCOc1cccc(=NC2CCCCC2)c2c(C)n(C)c(C)c12`: the cell number change was -66.6%. The concentration at half-maximal activity (AC50) under setting [2] was 3.66 µM [falling, full curve]. Besides, the AC50 under setting [1] was 2.06 µM [falling, full curve].

On to `COC(=O)C1=C(c2ccc3ccccc3c2)C[C@@H]2CC[C@H]1N2C(=O)NCc1ccc(C(F)(F)F)cc1`, for which the cell number change was -1.68%. The AC50 under setting [1] is 0.0184 µM [rising, full curve, poor fit]. As to `CC1CN=C(Nc2cccc3ccccc23)S1` (stereo not given), the cell number change was -7.31%. Take `CCN1CCC(N(C)C2CCCCC2)CC1`: the cell number change was -5.41%. The AC50 under setting [1] is 20.6 µM [falling, single point]. For the compound `O=[N+]([O-])c1cccc(O)c1`, the cell number change is -8.93%. For the same compound, the AC50 under setting [1] was 0.116 µM [falling, single point].

As for `COC(=O)C1=C(c2ccc(F)cc2OCc2ccccc2)C[C@@H]2CC[C@H]1N2C(=O)NCCOc1ccc(OC)cc1`, the cell number change is -9.75%. Further, the concentration at half-maximal activity (AC50) under setting [1] is 0.411 µM [falling, partial curve, poor fit]. Consider `COc1ccc(C(=O)NC(=S)N2C[C@H]3C[C@H](C2)c2cccc(=O)n2C3)cc1OC`, for which the cell number change is 23%. Moreover, the half-maximal activity concentration (AC50) under setting [1] is 6.51 µM [rising, single point]. With `Cc1cccc(-c2nc3ccc(C(=O)N4CCC5(CC4)OCCO5)cc3nc2-c2cccc(C)c2)c1`, the cell number change is -8.96%. Moreover, the concentration at half-maximal activity (AC50) under setting [1] was 2.59 µM [falling, partial curve]. In the case of `CCOC(=O)C1=C(N)OC2=C(C(=O)CCC2)C12C(=O)N(CC(N)=O)c1ccccc12` (stereo not given), the cell number change is -17.7%. The AC50 under setting [1] was 6.51 µM [rising, single point]. As to `N#CC1=C(N)Oc2c(c(=O)oc3ccccc23)C1c1ccc(OC(=O)N2CCOCC2)cc1` (stereo not given), the cell number change was -25.8%. Further, the concentration at half-maximal activity (AC50) under setting [1] was 5.17 µM [rising, single point].

On to `O=C(Cc1cccs1)N1CCC2(CC1)OCCO2`, for which the cell number change worked out at 4.17%. Moreover, the AC50 under setting [1] was 4.61 µM [falling, full curve]. `CC1Oc2cc3c(-c4c(O)cc(O)c5c(O)c6c(cc45)OC(C)C(C)C6=O)c(O)cc(O)c3c(O)c2C(=O)C1C` (stereo not given): the cell number change was -22.4%. Take `CCCCSP1(=S)NCCCN1`: the cell number change was found to be 8.63%. Besides, the half-maximal activity concentration (AC50) under setting [1] is 29.1 µM [rising, single point]. Consider `O=C(N/N=C/c1c(O)n(C2CC2)c(=S)[nH]c1=O)c1ccccc1O`, for which the cell number change is 13.8%. `O=c1nc(/C=C/c2ccc(Cl)cc2Cl)cc(C(F)(F)F)[nH]1`: the cell number change was -37.6%. Moreover, under setting [2], the AC50 is 18.4 µM [falling, single point]. For the compound `CCC(C)NC(=O)c1c(N)n(Cc2ccc3c(c2)OCO3)c2nc3ccccc3nc12` (stereo not given), the cell number change was -39.5%. For the same compound, the half-maximal activity concentration (AC50) under setting [2] was 29.1 µM [falling, single point]. Besides, under setting [1], the AC50 was 1.64 µM [rising, partial curve]. Regarding `CN[C@@H]1C[C@@H](c2ccc(Cl)c(Cl)c2)c2ccccc21`, the cell number change was -66.4%. Besides, under setting [2], the AC50 is 20.6 µM [falling, single point]. Consider `CC(=O)Nc1cccc([As](=O)(c2cccc(NC(C)=O)c2)c2cccc(NC(C)=O)c2)c1`, for which the cell number change is -19.6%. `CC(C)OCCCNC(=O)c1c(N)n(CC2CCCO2)c2nc3ccccc3nc12` (stereo not given): the cell number change was -26.4%. Under setting [1], the concentration at half-maximal activity (AC50) was 25.9 µM [falling, partial curve].

Take `COc1ccc(-[n+]2c(-c3ccccc3)cc(-c3ccc(C)cc3)cc2-c2ccccc2)cc1`: the cell number change was -22.8%.

Turning to `CCC(=NCCc1c[nH]c2ccccc12)c1c(O)n(-c2ccc(C)cc2)c(=O)[nH]c1=O`, the cell number change was -14.8%. Also, the concentration at half-maximal activity (AC50) under setting [1] is 16.4 µM [rising, partial curve]. Consider `NS(=O)(=O)c1ccc(N=Cc2c(O)n(-c3ccccc3)c(=O)[nH]c2=O)cc1`, for which the cell number change was -11.3%. Consider `CN1CCc2nc3sc(C(=O)NC4CC4)c(N)c3cc2C1`, for which the cell number change is -10.1%. Consider `CCC(C)N1C(=O)NC(=O)C2(Cc3cc(C)ccc3N(C)C2)C1=O` (stereo not given), for which the cell number change came out at 3.38%.

Take `O=Cc1cn(Cc2cccc([N+](=O)[O-])c2)c2ccccc12`: the cell number change is -7.69%. Also, under setting [1], the AC50 is 6.51 µM [rising, partial curve]. `O=c1[nH]c(=S)[nH]c(O)c1N=Nc1ccc2c(c1)OCO2`: the concentration at half-maximal activity (AC50) under setting [1] was 0.00461 µM [rising, full curve, poor fit].

Take `Oc1ccccc1CN(CCc1ccccc1)Cc1ccccc1`: the cell number change was -5.11%. The half-maximal activity concentration (AC50) under setting [1] is 0.58 µM [rising, single point]. For `CCC(C)n1c(O)c(C=Nc2cccc(C(F)(F)F)c2)c(=O)[nH]c1=S` (stereo not given), the cell number change is -29.7%. In addition, the AC50 under setting [1] was 7.31 µM [falling, partial curve, poor fit].

Turning to `Cc1cc(N)n(C2CCN(C)CC2)n1`, the cell number change is -20.2%. In addition, under setting [1], the AC50 was 3.66 µM [falling, full curve]. Take `CCOP(=O)(OCC)C(O)c1cccc([N+](=O)[O-])c1` (stereo not given): the cell number change was -74.9%. The AC50 under setting [2] is 0.651 µM [falling, partial curve]. Besides, the concentration at half-maximal activity (AC50) under setting [1] was 0.206 µM [falling, full curve]. Regarding `N=Cc1c(O)n(-c2cccc(Cl)c2)c(=O)[nH]c1=O`, the half-maximal activity concentration (AC50) under setting [1] is 23.1 µM [falling, partial curve]. Take `Cc1ccccc1OP(N)(=O)Oc1ccccc1C`: the cell number change worked out at 26%. Also, the AC50 under setting [2] was 4.11 µM [rising, full curve, poor fit]. As for `O=C(c1ccccc1F)c1cn(Cc2ccccc2)c2ccccc12`, the cell number change is -17.2%. As to `Cc1ccc(C)c(NC(=O)CCNC(=O)N2C[C@H]3C[C@@H](C2)c2cccc(=O)n2C3)c1`, the AC50 runs as follows: under setting [2], 6.51 µM [rising, single point]; under setting [1], 29.1 µM [rising, single point].

As to `O=C1NC(=O)N(Cc2ccco2)C(=O)/C1=C/c1ccc(-c2cccc([N+](=O)[O-])c2)o1`, the cell number change was -35.1%. Also, the half-maximal activity concentration (AC50) under setting [2] is 29.1 µM [falling, partial curve]. As to `CC(=O)OC1C2CCC1C(N1CCCC1)CC2` (stereo not given), the cell number change was -50.1%. Further, the AC50 under setting [2] is 25.9 µM [falling, partial curve, poor fit]. Besides, the half-maximal activity concentration (AC50) under setting [1] was 29.1 µM [falling, partial curve].

For the compound `O=C(Cc1ccccc1)OC(COCc1ccccc1)CN1CCOCC1` (stereo not given), the cell number change is -21%. The AC50 under setting [2] was 0.00461 µM [falling, full curve, poor fit]. Regarding `CC(Cc1cccs1)NCc1ccccc1` (stereo not given), the cell number change is -20.3%. Also, under setting [2], the AC50 was 5.8 µM [falling, single point]. The AC50 under setting [1] is 4.61 µM [falling, partial curve, poor fit]. As to `O=C(COC(=O)Cc1ccccc1)Nc1cc(S(=O)(=O)N2CCCCC2)ccc1Cl`, the cell number change was -81.9%. Besides, the concentration at half-maximal activity (AC50) under setting [2] was 29.1 µM [falling, single point]. The AC50 under setting [1] is 16.4 µM [rising, single point]. On to `CCCCCCCC(=O)OCC(O)CO` (stereo not given), for which the cell number change came out at 32.2%. Moreover, the concentration at half-maximal activity (AC50) under setting [2] is 14.6 µM [rising, partial curve, poor fit]. For the same compound, the AC50 under setting [1] was 0.366 µM [rising, full curve, poor fit].

As to `COC(=O)C1=C(c2ccc(F)cc2F)C[C@@H]2CC[C@H]1N2C(=O)N1CCC(O)CC1`, the cell number change was -2.15%. The AC50 under setting [1] is 0.092 µM [rising, single point]. As for `CN1c2ccc([N+](=O)[O-])cc2CC2(C(=O)NC(=O)N(c3ccc(Br)cc3)C2=O)C1c1ccccc1` (stereo not given), the cell number change is -12.2%. Also, the half-maximal activity concentration (AC50) under setting [1] is 16.4 µM [falling, single point]. For `Cc1cc(/C=C2\C(=O)NC(=O)N(c3cccc(F)c3)C2=O)c(C)n1-c1ccc(C(=O)O)c(Cl)c1`, the cell number change was -1.57%.

On to `CCCC1(CCC)C(=O)NC(=NCc2ccccc2)NC1=O`, for which the cell number change was 4%. Besides, the AC50 under setting [1] is 0.13 µM [falling, full curve, poor fit]. Take `COc1ccc(NC(=O)Cn2c(=O)oc3ccccc32)cc1`: the half-maximal activity concentration (AC50) under setting [2] is 13 µM [rising, single point]. Take `O=C1CSC2(CN3CCC2CC3)N1` (stereo not given): the cell number change is -32.8%. Moreover, the AC50 under setting [2] is 32.6 µM [falling, single point]. For the same compound, the AC50 under setting [1] was 10.3 µM [falling, partial curve].

As for `CCC1(CC)C(=O)N(Cc2ccccc2)C(=O)N(Cc2ccccc2)C1=O`, the cell number change was determined as 12.3%. As to `Cc1ccc(Cl)cc1-n1c(O)c(C=NCCCN2CCOCC2)c(=O)[nH]c1=O`, the cell number change was -37.4%. Further, the half-maximal activity concentration (AC50) under setting [1] was 0.206 µM [falling, full curve, poor fit]. Regarding `COc1cc(Br)cc(CN2CCN(C)CC2)c1O`, the cell number change came to 5.68%. The AC50 under setting [1] was 2.91 µM [falling, single point]. Regarding `CCOC(=O)c1ccc(N=Cc2c(O)n(-c3ccc(OC)cc3)c(=S)[nH]c2=O)cc1`, the cell number change amounted to 28.8%. Also, the concentration at half-maximal activity (AC50) under setting [1] is 29.1 µM [rising, single point]. In the case of `C[N+]1(C)C2CC(OC(=O)C(CO)c3ccccc3)CC1C1OC12` (stereo not given), the cell number change is -32.2%. Under setting [1], the AC50 is 13 µM [falling, partial curve]. On to `Cn1c(C(=O)O)c(CC(=O)N2CCN(Cc3ccccc3)CC2)c2ccccc21`, for which the cell number change is -3.16%. In addition, the AC50 under setting [1] is 0.116 µM [falling, full curve]. Regarding `O=C(COC(=O)Cc1ccccc1)Nc1nnc(-c2ccccc2)o1`, the cell number change was -1.76%. Besides, under setting [1], the AC50 was 0.00517 µM [rising, full curve, poor fit]. With `COc1ccc2c(c1)[C@@]13CCC=C[C@H]1[C@@H](C2)NCC3`, the cell number change is -36.3%. Besides, the AC50 under setting [2] is 10.3 µM [falling, single point]. Further, the AC50 under setting [1] is 20.6 µM [falling, single point]. For the compound `CC1(C)CN=C(Nc2ccc(F)c(F)c2)S1`, the cell number change was found to be 16%. Consider `CCCCOc1ccc(CN2CCN(CC)CC2)cc1`, for which the cell number change turned out to be 17.8%. Further, the concentration at half-maximal activity (AC50) under setting [1] was 0.651 µM [falling, full curve].

Source of the values: PubChem BioAssay AID2685 (National Center for Advancing Translational Sciences (NCATS), 2010).
